Source: publication PMC10203710
No constants are given. Whether binding was seen depends on the method and setting. In cells and extracts the contact can be indirect. Tags and fused reporters may be left off the sequences shown.

Biological target: IFT140 (human (endogenous in HEK-293T)), Q96RY7
Experiment: co-IP; HEK-293T cells transfected with Flag-human WDR60 or Flag-human WDR34; lysate in 1% Triton X-100 buffer (20 mM Tris pH 7.5, 150 mM NaCl); IP with anti-IFT88 or anti-IFT140 antibody at 4°C overnight, Protein A + G agarose beads, washed in cold PBS; WDR60 or WDR34 detected by western blot
Settings: remark: other sources report otherwise

binding: no binding
B1: Flag-human WDR60 (WD repeat domain 60), Q8WVS4 1-1066 (protein)
chain: MEPGKRRTKDDTWKADDLRKHLWAIQSGGSKEERKHREKKLRKESEMDLPEHKEPRCRDPDQDARSRDRVAEVHTAKESPRGERDRDRQRERRRDAKDREKEKLKEKHREAEKSHSRGKDREKEKDRRARKEELRQTVAHHNLLGQETRDRQLLERAERKGRSVSKVRSEEKDEDSERGDEDRERRYRERKLQYGDSKDNPLKYWLYKEEGERRHRKPREPDRDNKHREKSSTREKREKYSKEKSNSFSDKGEERHKEKRHKEGFHFDDERHQSNVDRKEKSAKDEPRKRESQNGEHRNRGASSKRDGTSSQHAENLVRNHGKDKDSRRKHGHEEGSSVWWKLDQRPGGEETVEIEKEETDLENARADAYTASCEDDFEDYEDDFEVCDGDDDESSNEPESREKLEELPLAQKKEIQEIQRAINAENERIGELSLKLFQKRGRTEFEKEPRTDTNSSPSRASVCGIFVDFASASHRQKSRTQALKQKMRSTKLLRLIDLDFSFTFSLLDLPPVNEYDMYIRNFGKKNTKQAYVQCNEDNVERDIQTEEIETREVWTQHPGESTVVSGGSEQRDTSDAVVMPKIDTPRLCSFLRAACQVMAVLLEEDRLAAEPSWNLRAQDRALYFSDSSSQLNTSLPFLQNRKVSSLHTSRVQRQMVVSVHDLPEKSFVPLLDSKYVLCVWDIWQPSGPQKVLICESQVTCCCLSPLKAFLLFAGTAHGSVVVWDLREDSRLHYSVTLSDGFWTFRTATFSTDGILTSVNHRSPLQAVEPISTSVHKKQSFVLSPFSTQEEMSGLSFHIASLDESGVLNVWVVVELPKADIAGSISDLGLMPGGRVKLVHSALIQLGDSLSHKGNEFWGTTQTLNVKFLPSDPNHFIIGTDMGLISHGTRQDLRVAPKLFKPQQHGIRPVKVNVIDFSPFGEPIFLAGCSDGSIRLHQLSSAFPLLQWDSSTDSHAVTGLQWSPTRPAVFLVQDDTSNIYIWDLLQSDLGPVAKQQVSPNRLVAMAAVGEPEKAGGSFLALVLARASGSIDIQHLKRRWAAPEVDECNRLRLLLQEALWPEGKLHK
